Results published in PubChem BioAssay AID540276 (National Center for Advancing Translational Sciences (NCATS), 2011).
Screen size: about 300,000 compounds; about 5,400 (1.8%) were called active. This list was built around the results that the source calls inconclusive (neither active nor inactive); the mix of calls is not that of the screen. The call rests on the fitted dose curve; tested in HEK293 cells. Potencies beside an inconclusive call are fits to weak or partial responses and may not hold up.

Experiment: qHTS for inhibitors of binding or entry into cells for Marburg Virus
Conditions: Marburg virus pseudotyped entry inhibition, cell reporter; series mostly up to 37.8 µM
Potency means the concentration at half of the fitted maximal effect.

| Compound | Potency |
| --- | --- |
| CC(C)OP(=O)(OC(C)C)C(Nc1ccccn1)c1ccc(F)cc1 (centres undefined) | inconclusive: 0.501 µM [activator, partial curve, poor fit] |
| c1cncc(-c2cccnc2)c1 | inconclusive: 35.5 µM [activator, single point] |
| Oc1[nH]c2ccccc2c1/C=N/c1nccs1 | inconclusive: 5.62 µM [activator, single point] |
| N#CC(C#N)=Cc1ccc([N+](=O)[O-])c(O)c1 | inconclusive: 5.62 µM [inhibitor, single point] |
| Cc1cnc(NC(=O)CSc2nnc(C)n2N)s1 | inconclusive: 12.6 µM [activator, single point] |
| O=C(Nc1ccc2c(c1)Cc1ccccc1-2)c1ccncc1 | inconclusive: 2.82 µM [activator, single point] |
| Cc1ncc(CO)c(/C=N/NC(=O)c2ccoc2C)c1O | inconclusive: 25.1 µM [inhibitor, single point] |
| COc1ccc(CCn2c(=O)c3cccnc3n(CC(=O)Nc3ccc(C)c(F)c3)c2=O)cc1OC | inactive |
| CCOC(=O)c1c(NC(=O)Cn2nc(C(=O)O)c3ccccc3c2=O)sc(CC)c1C | inconclusive: 17.8 µM [inhibitor, single point] |
| CSc1n[nH]c(NCc2cccs2)n1 | inconclusive: 6.51 µM [activator, single point] |
| COc1ccc(OC)c(Nc2ncnc3c2cnn3-c2ccccc2)c1 | inactive |
| O=C(O)CCCC(=O)Nc1ccc(Br)cc1C(=O)O | inconclusive: 12.6 µM [activator, single point] |
| Fc1cc(NCc2ccccc2)nc(NCc2ccccc2)n1 | inactive |
| Cc1cc(N2CC34C=CC(O3)C(C(=O)O)C4C2=O)no1 (centres undefined) | inconclusive: 35.5 µM [inhibitor, single point] |
| O=C(O)c1cccc2cccc(-c3c4ccc(=O)c(O)c-4oc4c(O)c(O)ccc34)c12 | inconclusive: 11.2 µM [inhibitor, partial curve, poor fit] |
| CCCOc1ccccc1-c1nc2c([nH]1)c(=O)[nH]c(=O)n2C | inactive |
| Cc1[nH]c(=O)[nH]c(=O)c1NS(=O)(=O)c1ccc2c(c1)CCCC2 | inactive |
| CC(C)(C)NC(=O)C(c1ccc(O)cc1)N(C(=O)CCC(=O)Nc1ccccn1)c1ccc(F)cc1 (centres undefined) | inconclusive: 1 µM [inhibitor, full curve, poor fit] |
| Cc1ccc(CNC(=O)COc2ccc(S(=O)(=O)N3CCCC3)cc2)cc1 | inactive |
| CC(C)C(NC(=O)c1ccccc1F)C(=O)NCCc1ccccn1 (centres undefined) | inactive |
| Cc1ccc(NC(=O)/C(=C/c2cccc([N+](=O)[O-])c2)NC(=O)C2CCCCC2)cc1 | inactive |
| O=C1NC2(CCCCC2)N=C1c1ccccc1 | inconclusive: 0.116 µM [inhibitor, full curve, poor fit] |
| Cc1ccccc1CSCCNC(=O)c1ccccc1 | inactive |

2 entries from above, bar-delimited.
Compound | Potency
CCOC(=O)c1c(NC(=O)Cn2nc(C(=O)O)c3ccccc3c2=O)sc(CC)c1C | inconclusive: 17.8 µM [inhibitor, single point]
CSc1n[nH]c(NCc2cccs2)n1 | inconclusive: 6.51 µM [activator, single point]

Going on with the list.

| Compound | Potency |
| --- | --- |
| O=C1C2C3C=CC(C3)C2C(=O)N1Nc1ccccc1 (centres undefined) | inconclusive: 20 µM [inhibitor, single point] |
| COc1ccc(N2C(=O)[C@@H]3[C@H](C2=O)[C@H](C(=O)c2ccc(OC(C)=O)cc2)N2N=CC=C[C@@H]32)cc1 | inactive |
| Cc1ccccc1N=Nc1c(C)[nH]n(-c2ccccc2)c1=O | inactive |
| CCc1c(C)sc(NC(=O)c2ccoc2C)c1C(N)=O | inactive |
| Cc1cccc(NC(=O)Nc2ccccc2)n1 | inconclusive: 1.78 µM [activator, partial curve, poor fit] |
| COc1ccc(OCCCC(=O)Nc2ncn[nH]2)cc1 | inactive |
| COc1ccc(CNc2nc3ccccc3n2Cc2ccccc2)cc1OC | inconclusive: 8.91 µM [inhibitor, partial curve] |
| CC(=O)Nc1ccc(C(=O)NCC2(N3CCCCC3)CCCCC2)cc1 | inconclusive: 5.62 µM [inhibitor, full curve, poor fit] |
| CC(=O)Nc1cccc(/C(C)=N/NC(=O)c2cccs2)c1 | inconclusive: 31.6 µM [activator, single point] |
| CCCN(C(=O)CSc1n[nH]c(-c2ccc(OC)cc2)n1)c1c(N)n(Cc2ccccc2)c(=O)[nH]c1=O | inconclusive: 1.78 µM [inhibitor, partial curve] |
| COc1ccc(NC(=O)c2nc[nH]c2C(=O)Nc2ccccc2C)cc1 | inconclusive: 5.62 µM [inhibitor, full curve] |
| O=C(N/N=C/c1ccc2c(c1)OCO2)C(=O)N1CCCC1 | inconclusive: 31.6 µM [activator, single point] |
| CC1CCCN(C(=O)c2cc3c(=O)n(C)c4ccccc4c3s2)C1 (centres undefined) | inactive |
| Cn1nc(C(=O)N2CCN(S(=O)(=O)/C=C/c3ccccc3)CC2)c2ccccc2c1=O | inconclusive: 20 µM [inhibitor, partial curve, poor fit] |
| O=C(N/N=C/c1cn(-c2ccccc2)nc1-c1ccc(F)cc1)c1ccc(Br)o1 | inconclusive: 22.4 µM [inhibitor, single point] |
| Cc1cc(N2CC(C(=O)NCc3cccs3)CC2=O)ccc1C(C)C (centres undefined) | inactive |
| Cc1ccc(OCC(=O)Nc2ccc(N3CCN(S(C)(=O)=O)CC3)cc2)c(C)c1 | inconclusive: 35.5 µM [inhibitor, single point] |
| COC(=O)Cc1[nH]n(-c2ccccc2)c(=O)c1C=Nc1ccc(C)cc1 | inconclusive: 0.562 µM [inhibitor, full curve, poor fit] |
| CC(C)(C)OC(=O)NCCc1nnc(SCC(=O)Nc2cccc(Cl)c2)o1 | inconclusive: 2.91 µM [inhibitor, partial curve, poor fit] |
| Cc1sc2c(c1C)c(=O)n(-c1ccc(Cl)cc1)c(=O)n2Cc1cc(=O)n2ccccc2n1 | inconclusive: 1.26 µM [activator, single point] |
| COc1ccc(-n2nc([N+](=O)[O-])c(=NCc3cccnc3)n2O)cc1 | inconclusive: 1.26 µM [activator, partial curve] |
| Cc1cc(Cl)ccc1OCC(=O)OCC(=O)NC1CCCC1 | inactive |
| O=c1[nH]c2cnn(-c3ccccc3)c2c(=O)n1O | inconclusive: 14.1 µM [activator, partial curve, poor fit] |

| Compound | Potency |
| --- | --- |
| CCc1ccc(-c2nc(CN3CCC(C(=O)NCCc4ccc(OC)c(OC)c4)CC3)c(C)o2)cc1 | inconclusive: 23.1 µM [inhibitor, partial curve, poor fit] |
| CC(C)N(C(=O)c1ccc2nc(-c3ccccc3)c(-c3ccccc3)nc2c1)C(C)C | inactive |
| O=C(CNS(=O)(=O)c1cccs1)N1CCc2ccccc2C1 | inconclusive: 2.51 µM [activator, full curve, poor fit] |
| CCOc1cc(/C=N/N2CCOCC2)ccc1OCc1ccc(C(=O)OC)o1 | inconclusive: 5.62 µM [activator, full curve, poor fit] |
| CCCC(=O)NC1CCc2cc(OC)c(OC)c(OC)c2-c2ccc(OC)c(=O)cc21 (centres undefined) | inconclusive: 0.112 µM [inhibitor, full curve, poor fit] |
| CCOC(=O)c1c(C)[nH]c(C)c1C(=O)CSc1nnc(-c2ccncc2)n1C | inactive |
| COc1ccc(NC(=O)C2CC(c3ccccc3Cl)=NO2)cc1 (centres undefined) | inconclusive: 35.5 µM [activator, single point] |
| CCCOc1ccc(-c2nnn(CC(=O)OCC)n2)cc1 | inactive |
| COc1ccc(NC(=O)Nc2nc3ccccc3s2)cc1 | inconclusive: 5.62 µM [activator, single point] |
| O=C(Nc1ccccc1N1CCN(C(=O)c2ccccc2)CC1)c1ccc([N+](=O)[O-])o1 | inconclusive: 35.5 µM [inhibitor, single point] |
| CCc1nc2ccccc2n1Cc1ccc(OC)c(OC)c1 | inactive |
| CCCCn1c(N)c(N(C)C(=O)C2CC(=O)N(Cc3ccco3)C2)c(=O)[nH]c1=O (centres undefined) | inconclusive: 0.316 µM [inhibitor, full curve, poor fit] |
| Cc1ccc(CN2CCCCC2C(=O)Nc2ccc(Oc3cccnc3)cc2)o1 (centres undefined) | inconclusive: 10 µM [inhibitor, partial curve] |
| CCOc1ccc(CN(C)CC(=O)NCc2ccccc2Cl)cc1 | inactive |
| CN(C)CCN(C)C1CN(Cc2ccc(F)cc2)S(=O)(=O)C1 (centres undefined) | inconclusive: 0.25 µM [activator, full curve, poor fit] |
| CC(=O)NN1C(=O)/C(=C/c2ccc(C(C)C)cc2)SC1=S | inconclusive: 22.4 µM [activator, single point] |
| CN(Cc1ccccc1)C(=O)COC(=O)CCC(=O)c1ccc(F)cc1 | inactive |
| COC(=O)CN1C(=S)N(C)C(=O)C1CC(=O)Nc1ccccc1 (centres undefined) | inactive |
| COc1cc2[nH]c(=O)n(CCCCCC(=O)NCCc3c[nH]c4ccccc34)c(=O)c2cc1OC | inconclusive: 0.708 µM [inhibitor, partial curve, poor fit] |
| Cc1ccc(/C=C/C(=O)NCCc2ccccc2)o1 | inconclusive: 35.5 µM [activator, single point] |
| CN(Cc1ccccc1)C(=O)COC(=O)c1ccc(Cl)cc1N | inconclusive: 35.5 µM [activator, single point] |
| O=C(c1ccc(N2CCN(C(=O)c3ccccc3)CC2)cc1)c1cccc(F)c1 | inconclusive: 22.4 µM [inhibitor, single point] |
| CCOC(=O)c1ccc(N2C(=O)c3n[nH]c(C)c3C2c2cccc(Br)c2)cc1 (centres undefined) | inconclusive: 11.2 µM [inhibitor, partial curve, poor fit] |
